Source: patent US4273777A, “Methods of treating mammals suffering from inflammation and pain” (Laboratorios Bago S.A., priority 1980, dated 1981)
At least one read-out could not be matched to a standard name with certainty.

Key:
[1] = Carrageenin induced edema test (anti-inflammatory activity); format: in vivo, rat (Sprague Dawley); conditions: oral, 30 minutes prior
Experimental: Anti-inflammatory Activity (Carrageenin induced edema test)
Fifteen to twenty male rats of Sprague Dawley strain weighing 150-200 g, were employed for each compound tested. 0.1 ml of 1% carrageenin saline suspension was injected into the subplantar region of the right hind-paw. The test compounds were orally administered 30 minutes prior to the injection of carrageenin and the foot volume was determined 1, 3 and 5 hours after the injection of carrageenin. The percent swelling in the foot was obtained by comparing the volume before and after the injection of carrageenin, and the rate of inhibition in the treated animals was calculated.

[2] = Tail pressure test (analgesic activity); format: in vivo, mouse (Rockland); conditions: oral; control (water) 0; dose mg/kg: ASA 100, pivaloyloxymethyl TPA ester 166 and 66, CPA 50, TPA 47, phthalidyl CPA ester 72, pivaloyloxymethyl CPA ester 69, xylyl anthranylates 77 (phthalidyl)/74 (pivaloyloxymethyl), TAA 50, its phthalidyl ester 73.5, pivaloyloxymethyl ester 82
Experimental: Tail pressure test: Ten male mice of Rockland strain weighing 20-25 g were used for each compound tested. The response threshold on applying pressure to the tail was determined with an analgesy meter at 15 and 60 minutes after oral administration of the test compound. The pressure at which a struggle was elicited was read.

SMILES: CC(=O)Oc1ccccc1C(=O)O [Acetylsalicylic acid (ASA), Acetylsalicylic acid, reference compound]
- % Edema Inhibition, 1 hour ([1]; 1 hour after carrageenin, dose mg/kg: ASA 100, TPA 47, pivaloyloxymethyl TPA ester 66, CPA 150, phthalidyl CPA ester 216, pivaloyloxymethyl CPA ester 207, xylyl anthranylates 186 (phthalidyl)/196 (pivaloyloxymethyl), TAA 60, its phthalidyl ester 88, pivaloyloxymethyl ester 84.5): 3.8%
- % Edema Inhibition, 3 hours ([1]; 3 hours after carrageenin, doses as for 1 hour column): 24.8%
- % Edema Inhibition, 5 hours ([1]; 5 hours after carrageenin, doses as for 1 hour column): 25.3%
- Relative strength, Tail pressure test [2]: 1.00
